Source: patent publication US20240262845A1, “PYRIDINIUM SALTS, METHODS OF MAKING, AND METHODS OF USE” (UNIVERSITY OF WYOMING, priority 2023, published 2024)

Tested on: HEK293T cells
Assay: In-situ chemoproteomic tryptophan profiling of live HEK293T cells
Format: cell-based, human
Procedure: Cell culture and in-situ tryptophan probe treatment: Cell lines were cultured at 37° C. with 5% CO2. Human embryonic kidney 293 cells expressing a mutant version of the SV40 large T antigen (HEKT293T cells) were grown in Dulbecco's Modified Eagle Medium (DMEM, Gibco) supplemented with 10% fetal bovine serum and 1% penicillin/streptomycin. For in-situ labeling, cells were grown to 90% confluence, washed with Dulbecco's phosphate buffered saline (DPBS), treated with 100× stocks of the tryptophan probes (the pyridinium salts) in OptiMem (GibCo) to generate final concentrations (0 μM, 1 μM, 10 μM, and 100 μM) in 1% dimethylsulfoxide (DMSO). Cells were incubated for 1 hour at 37° C. with 5% CO2 followed by photo-activation at the respective wavelengths for 20 minutes at 4° C. Cells were harvested with a cell scraper, washed 3× with DPBS, and pellets were stored at −80° C. until further use. […]
In-situ tryptophan probe sample processing for peptide-level characterization: Cell pellets were lysed via sonication (QSonica) at 50% amplitude, 2 seconds ON, 3 seconds OFF, 30 seconds in 40 mM HEPES pH 7.5 (4-(2-hydroxyethyl)-1-piperazineethanesulfonic acid), 1.5 mM magnesium chloride (MgCl2), 1% Sodium dodecyl sulfate (SDS), 0.8% NP-40 (also known as nonyl phenoxypolyethoxylethanol), and 1× protease inhibitors (Thermo). Protein concentration was determined by BCA (Pierce). […]

COc1ccc2cc(-c3cc(C)[n+](N(C)C(=O)OCCCCCCN=[N+]=[N-])c(C)c3)ccc2c1 [pyridinium salt 2d, 1-((((6-azidohexyl)oxy)carbonyl)(methyl)amino)-4-(6-methoxynaphthalen-2-yl)-2,6-dimethylpyridin-1-ium tetrafluoroborate]
Trp residue of NPM1 labeled in situ (NPM1): Trp290
Trp residues of PARP1 modified and dose-dependently enriched in situ (PARP1): Trp79; also recorded: Trp318

Entries after “also recorded” stand apart in the source; their conditions may differ. Where a name gives a salt, the structure may show the parent alone.
